Laboratory results: PubChem BioAssay AID743121 (NCATS, 2013)
Screen: 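Knock-downs that sensitise breast cancer cells to camptothecin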 (primary screen). Cells: MDA-MB-231 cells, a human breast cancer line. Reagents: single siRNA against human genes, 20 nM siRNA (0.8 pmol per well). Timing: 120 h (drug added 48 h after transfection, read 72 h later). Treatment: camptothecin 20 nM (about EC30) for 72 h; vehicle 0.1% DMSO in parallel plates. Read-out: 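Cell viability by ATP luminescence (CellTiter-Glo) as % of non-targeting siRNA wells, and the log2 ratio of viability without drug over viability with camptothecin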. Reading the numbers: log2 vehicle/camptothecin viability: higher = stronger sensitisation to camptothecin; viability with camptothecin: higher = more viable cells. Active means: 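Each gene scored by redundant siRNA activity (RSA) over its individual siRNA ratios; a gene is called active at p < 0.001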.
The deposit covers about 26,000 reagents; shown is a part drawn at random. 167 of all reagents (0.63%) count as active. 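Calls are per gene from RSA p-values that are not deposited; an individual active-marked siRNA can sensitise only weakly.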 The numbers tell different reagents against one gene apart. Further read-outs or replicates are left out here.

With knock-down of KISS1R (GeneID 84634) #1 the results were log2 vehicle/camptothecin viability -0.217; viability with camptothecin (% of control) = 55.6; inactive.
KISS1R (GeneID 84634) #2 gave log2 vehicle/camptothecin viability -0.193; viability with camptothecin (% of control) = 102; inactive.
KISS1R (GeneID 84634) #3 scored log2 vehicle/camptothecin viability -0.819; viability with camptothecin (% of control) = 91.7; inactive.
KISS1R (GeneID 84634) #4 scored log2 vehicle/camptothecin viability -0.441; viability with camptothecin (% of control) = 84.2; inactive.
For TDRD3 (GeneID 81550) #1, the values are log2 vehicle/camptothecin viability -0.165; viability with camptothecin (% of control) = 64.2; inactive.
TDRD3 (GeneID 81550) #2 scored log2 vehicle/camptothecin viability 0.54; viability with camptothecin (% of control) = 18.4; inactive.
Depletion of TDRD3 (GeneID 81550) #3 resulted in: log2 vehicle/camptothecin viability -0.246; viability with camptothecin (% of control) = 101; inactive.
With knock-down of TDRD3 (GeneID 81550) #4, the screen gave log2 vehicle/camptothecin viability -0.0276; viability with camptothecin (% of control) = 58.8; inactive.
For AGL (GeneID 178) #1, the values are log2 vehicle/camptothecin viability -0.0143; viability with camptothecin (% of control) = 82; inactive.
Against AGL (GeneID 178) #2, the values are log2 vehicle/camptothecin viability -0.134; viability with camptothecin (% of control) = 82; inactive.
Depletion of AGL (GeneID 178) #3 resulted in: log2 vehicle/camptothecin viability -0.445; viability with camptothecin (% of control) = 69.3; inactive.
MAN2B2 (GeneID 23324) #1 scored log2 vehicle/camptothecin viability -0.237; viability with camptothecin (% of control) = 91.4; inactive.
Depletion of MAN2B2 (GeneID 23324) #2 gave: log2 vehicle/camptothecin viability 0.0105; viability with camptothecin (% of control) = 101; inactive.
Against MAN2B2 (GeneID 23324) #3, the values are log2 vehicle/camptothecin viability -0.883; viability with camptothecin (% of control) = 79; inactive.
Depletion of MAN2B2 (GeneID 23324) #4 gave: log2 vehicle/camptothecin viability -0.277; viability with camptothecin (% of control) = 57.1; inactive.
Silencing of IL1RN (GeneID 3557) #1 gave: log2 vehicle/camptothecin viability -0.0296; viability with camptothecin (% of control) = 116; inactive.
Knock-down of IL1RN (GeneID 3557) #2 came out at: log2 vehicle/camptothecin viability 0.0832; viability with camptothecin (% of control) = 63; inactive.
Against IL1RN (GeneID 3557) #3, the values are log2 vehicle/camptothecin viability 0.23; viability with camptothecin (% of control) = 76.2; inactive.
IL1RN (GeneID 3557) #4 gave log2 vehicle/camptothecin viability 0.397; viability with camptothecin (% of control) = 34.8; inactive.
TOP2B (GeneID 7155) #1 showed log2 vehicle/camptothecin viability -0.639; viability with camptothecin (% of control) = 113; inactive.
With knock-down of TOP2B (GeneID 7155) #2, the record shows log2 vehicle/camptothecin viability -0.133; viability with camptothecin (% of control) = 124; inactive.
TOP2B (GeneID 7155) #3 gave log2 vehicle/camptothecin viability -0.0723; viability with camptothecin (% of control) = 86.5; inactive.
With knock-down of RIPK3 (GeneID 11035) #1, the screen gave log2 vehicle/camptothecin viability -0.13; viability with camptothecin (% of control) = 64.9; inactive.
After knock-down of RIPK3 (GeneID 11035) #2, the record shows log2 vehicle/camptothecin viability -0.397; viability with camptothecin (% of control) = 95.8; inactive.
Silencing of RIPK3 (GeneID 11035) #3 came out at: log2 vehicle/camptothecin viability -0.444; viability with camptothecin (% of control) = 101; inactive.
Depletion of RIPK3 (GeneID 11035) #4 resulted in: log2 vehicle/camptothecin viability -0.182; viability with camptothecin (% of control) = 77.5; inactive.
With knock-down of MBL2 (GeneID 4153) #1, the screen gave log2 vehicle/camptothecin viability -0.225; viability with camptothecin (% of control) = 117; inactive.
MBL2 (GeneID 4153) #2 showed log2 vehicle/camptothecin viability -0.186; viability with camptothecin (% of control) = 57.6; inactive.
Silencing of MBL2 (GeneID 4153) #3 came out at: log2 vehicle/camptothecin viability 0.284; viability with camptothecin (% of control) = 61.4; inactive.
Silencing of GIP (GeneID 2695) #1 came out at: log2 vehicle/camptothecin viability -0.189; viability with camptothecin (% of control) = 93.4; inactive.
For GIP (GeneID 2695) #2 the deposit lists log2 vehicle/camptothecin viability -0.369; viability with camptothecin (% of control) = 30.4; inactive.
GIP (GeneID 2695) #3 scored log2 vehicle/camptothecin viability 0.141; viability with camptothecin (% of control) = 56.1; inactive.
Depletion of GIP (GeneID 2695) #4 gave: log2 vehicle/camptothecin viability -0.161; viability with camptothecin (% of control) = 88.6; inactive.
After knock-down of ALDH3A2 (GeneID 224) #1 the results were log2 vehicle/camptothecin viability -0.243; viability with camptothecin (% of control) = 69.8; inactive.
For ALDH3A2 (GeneID 224) #2, the entry reads log2 vehicle/camptothecin viability -0.275; viability with camptothecin (% of control) = 46.2; inactive.
Knock-down of ALDH3A2 (GeneID 224) #3 came out at: log2 vehicle/camptothecin viability -0.147; viability with camptothecin (% of control) = 98.6; inactive.
ALDH3A2 (GeneID 224) #4 scored log2 vehicle/camptothecin viability -0.139; viability with camptothecin (% of control) = 82.3; inactive.

Only “log2 vehicle/camptothecin viability” (2 entries from above):
MAN2B2 (GeneID 23324) #3: -0.883
MAN2B2 (GeneID 23324) #4: -0.277
